Results are given in words; binding and its absence hold for the method and conditions named. Binding seen in cells or lysates may run through a third protein. Some binding calls cover weakened binding; strength is not graded here.
Target: YFP-APCL (human) (UniProt O95996)
Experiment: co-IP; Triton-X100 extract of 293T cells transfected with the YFP fusion, mixed with an SW480 Triton-X100 extract as a source of β-catenin; immunoprecipitation with anti-GFP, western blot; washes in 50 mM TrisHCl pH8, 150 mM NaCl, 5 mM EDTA, 1% Triton-X100

The chains behind the UniProt entries cited, without tags or fusion partners.
UniProt O95996: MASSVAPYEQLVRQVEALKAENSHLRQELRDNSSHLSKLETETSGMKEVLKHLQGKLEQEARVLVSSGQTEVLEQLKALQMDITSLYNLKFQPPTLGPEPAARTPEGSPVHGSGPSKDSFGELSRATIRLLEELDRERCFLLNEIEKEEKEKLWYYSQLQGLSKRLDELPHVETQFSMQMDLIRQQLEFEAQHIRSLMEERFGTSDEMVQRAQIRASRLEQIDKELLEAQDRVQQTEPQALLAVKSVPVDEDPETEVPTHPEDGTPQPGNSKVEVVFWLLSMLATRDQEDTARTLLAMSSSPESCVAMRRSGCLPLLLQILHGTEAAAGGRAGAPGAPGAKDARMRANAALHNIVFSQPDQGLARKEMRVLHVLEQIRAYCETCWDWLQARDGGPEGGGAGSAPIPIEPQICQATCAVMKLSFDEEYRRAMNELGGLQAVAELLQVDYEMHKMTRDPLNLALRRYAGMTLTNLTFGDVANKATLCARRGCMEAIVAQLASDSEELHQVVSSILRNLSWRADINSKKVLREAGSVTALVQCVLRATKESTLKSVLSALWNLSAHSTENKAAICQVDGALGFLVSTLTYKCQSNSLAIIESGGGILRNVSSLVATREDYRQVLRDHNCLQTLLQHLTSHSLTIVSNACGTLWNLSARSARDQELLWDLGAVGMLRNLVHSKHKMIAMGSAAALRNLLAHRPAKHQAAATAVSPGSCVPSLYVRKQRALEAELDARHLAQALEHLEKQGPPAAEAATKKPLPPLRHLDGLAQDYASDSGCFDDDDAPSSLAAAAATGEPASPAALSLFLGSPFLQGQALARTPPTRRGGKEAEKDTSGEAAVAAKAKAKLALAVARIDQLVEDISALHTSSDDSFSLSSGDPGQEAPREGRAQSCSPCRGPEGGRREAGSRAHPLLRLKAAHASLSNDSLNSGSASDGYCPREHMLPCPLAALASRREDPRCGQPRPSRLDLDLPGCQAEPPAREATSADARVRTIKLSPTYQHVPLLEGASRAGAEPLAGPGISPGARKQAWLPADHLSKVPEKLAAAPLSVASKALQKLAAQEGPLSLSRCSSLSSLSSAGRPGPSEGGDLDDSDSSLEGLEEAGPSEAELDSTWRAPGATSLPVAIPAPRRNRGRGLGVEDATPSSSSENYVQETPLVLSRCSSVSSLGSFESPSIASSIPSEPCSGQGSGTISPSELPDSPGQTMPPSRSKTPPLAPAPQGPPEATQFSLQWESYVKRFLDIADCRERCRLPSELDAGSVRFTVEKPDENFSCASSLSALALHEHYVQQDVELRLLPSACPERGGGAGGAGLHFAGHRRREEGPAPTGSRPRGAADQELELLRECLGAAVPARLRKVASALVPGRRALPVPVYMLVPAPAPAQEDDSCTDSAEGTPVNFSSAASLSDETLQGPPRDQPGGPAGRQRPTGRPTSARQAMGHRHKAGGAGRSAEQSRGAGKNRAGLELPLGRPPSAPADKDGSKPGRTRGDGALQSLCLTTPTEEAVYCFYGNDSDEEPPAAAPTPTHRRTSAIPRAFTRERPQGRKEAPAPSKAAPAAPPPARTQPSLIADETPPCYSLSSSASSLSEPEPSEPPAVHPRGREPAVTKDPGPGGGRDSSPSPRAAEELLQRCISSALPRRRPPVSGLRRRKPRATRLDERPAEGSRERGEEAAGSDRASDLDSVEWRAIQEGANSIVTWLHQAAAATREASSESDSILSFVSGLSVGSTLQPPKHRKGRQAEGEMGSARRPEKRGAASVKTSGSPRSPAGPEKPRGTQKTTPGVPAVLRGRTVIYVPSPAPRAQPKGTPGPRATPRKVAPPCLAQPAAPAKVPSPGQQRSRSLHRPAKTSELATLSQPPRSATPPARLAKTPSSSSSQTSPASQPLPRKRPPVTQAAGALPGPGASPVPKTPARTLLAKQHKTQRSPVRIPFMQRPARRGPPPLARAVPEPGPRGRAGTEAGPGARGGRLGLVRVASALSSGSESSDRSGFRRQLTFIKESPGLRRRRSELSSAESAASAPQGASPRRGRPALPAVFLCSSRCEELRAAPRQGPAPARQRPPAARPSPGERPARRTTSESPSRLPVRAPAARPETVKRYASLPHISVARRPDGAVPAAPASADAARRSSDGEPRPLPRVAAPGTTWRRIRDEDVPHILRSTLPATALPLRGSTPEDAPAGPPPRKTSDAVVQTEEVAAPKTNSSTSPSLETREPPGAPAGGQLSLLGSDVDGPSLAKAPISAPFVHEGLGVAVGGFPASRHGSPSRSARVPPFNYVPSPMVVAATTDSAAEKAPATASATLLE
UniProt P35222: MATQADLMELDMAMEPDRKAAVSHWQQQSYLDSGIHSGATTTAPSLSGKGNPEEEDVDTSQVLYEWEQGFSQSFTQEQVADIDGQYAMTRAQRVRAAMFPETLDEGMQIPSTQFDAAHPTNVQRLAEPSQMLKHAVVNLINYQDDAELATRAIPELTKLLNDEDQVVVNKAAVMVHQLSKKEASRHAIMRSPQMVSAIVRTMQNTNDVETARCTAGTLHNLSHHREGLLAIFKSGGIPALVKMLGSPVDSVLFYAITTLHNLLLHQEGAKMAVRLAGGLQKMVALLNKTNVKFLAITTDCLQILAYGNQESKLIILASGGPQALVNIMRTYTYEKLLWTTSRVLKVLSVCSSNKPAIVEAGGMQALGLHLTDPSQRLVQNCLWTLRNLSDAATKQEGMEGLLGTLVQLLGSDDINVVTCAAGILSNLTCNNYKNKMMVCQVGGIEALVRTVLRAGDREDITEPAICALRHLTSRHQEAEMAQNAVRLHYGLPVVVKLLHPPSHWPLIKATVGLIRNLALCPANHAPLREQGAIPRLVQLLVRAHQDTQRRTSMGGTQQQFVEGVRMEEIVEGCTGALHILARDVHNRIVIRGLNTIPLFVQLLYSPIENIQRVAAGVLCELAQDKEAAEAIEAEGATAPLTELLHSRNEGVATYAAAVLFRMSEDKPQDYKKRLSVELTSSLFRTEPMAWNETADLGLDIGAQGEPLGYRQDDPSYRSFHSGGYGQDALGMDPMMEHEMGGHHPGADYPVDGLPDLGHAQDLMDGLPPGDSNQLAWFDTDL

Q: With β-catenin (from UniProt P35222 1-781) as the substance, how does the binding read?
A: binds
